The other results are listed elsewhere or left out. Most values lie at the level of the controls, where differences are scatter.

Amino acid sequences for entries named in this document (tags omitted). A change or cut given only in a name is not applied to a line headed by its entry.
UniProt Q3UZ39: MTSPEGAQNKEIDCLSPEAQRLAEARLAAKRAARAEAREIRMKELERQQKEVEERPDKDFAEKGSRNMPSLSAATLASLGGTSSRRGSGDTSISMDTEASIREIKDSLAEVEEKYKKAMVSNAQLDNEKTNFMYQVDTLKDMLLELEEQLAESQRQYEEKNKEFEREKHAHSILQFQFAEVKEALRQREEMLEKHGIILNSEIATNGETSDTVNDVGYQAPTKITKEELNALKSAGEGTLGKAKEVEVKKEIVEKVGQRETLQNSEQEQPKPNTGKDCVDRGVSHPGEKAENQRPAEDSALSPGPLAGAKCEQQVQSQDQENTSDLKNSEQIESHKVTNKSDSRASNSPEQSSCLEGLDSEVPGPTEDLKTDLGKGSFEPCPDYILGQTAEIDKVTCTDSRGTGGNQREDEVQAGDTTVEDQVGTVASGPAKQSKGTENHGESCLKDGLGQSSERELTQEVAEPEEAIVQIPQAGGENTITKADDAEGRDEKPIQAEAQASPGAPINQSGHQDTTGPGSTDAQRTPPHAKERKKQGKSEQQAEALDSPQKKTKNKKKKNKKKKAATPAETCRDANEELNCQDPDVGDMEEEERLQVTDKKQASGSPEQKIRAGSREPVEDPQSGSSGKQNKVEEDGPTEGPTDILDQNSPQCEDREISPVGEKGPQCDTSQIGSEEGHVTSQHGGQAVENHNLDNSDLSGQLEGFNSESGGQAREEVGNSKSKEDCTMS
UniProt Q3UFF7: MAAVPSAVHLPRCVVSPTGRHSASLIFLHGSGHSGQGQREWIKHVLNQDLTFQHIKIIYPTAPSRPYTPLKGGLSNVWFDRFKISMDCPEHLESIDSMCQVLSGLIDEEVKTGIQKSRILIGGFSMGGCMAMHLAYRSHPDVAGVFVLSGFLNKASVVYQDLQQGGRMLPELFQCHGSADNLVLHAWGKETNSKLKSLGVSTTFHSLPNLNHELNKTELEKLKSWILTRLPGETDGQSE
UniProt Q3UR70: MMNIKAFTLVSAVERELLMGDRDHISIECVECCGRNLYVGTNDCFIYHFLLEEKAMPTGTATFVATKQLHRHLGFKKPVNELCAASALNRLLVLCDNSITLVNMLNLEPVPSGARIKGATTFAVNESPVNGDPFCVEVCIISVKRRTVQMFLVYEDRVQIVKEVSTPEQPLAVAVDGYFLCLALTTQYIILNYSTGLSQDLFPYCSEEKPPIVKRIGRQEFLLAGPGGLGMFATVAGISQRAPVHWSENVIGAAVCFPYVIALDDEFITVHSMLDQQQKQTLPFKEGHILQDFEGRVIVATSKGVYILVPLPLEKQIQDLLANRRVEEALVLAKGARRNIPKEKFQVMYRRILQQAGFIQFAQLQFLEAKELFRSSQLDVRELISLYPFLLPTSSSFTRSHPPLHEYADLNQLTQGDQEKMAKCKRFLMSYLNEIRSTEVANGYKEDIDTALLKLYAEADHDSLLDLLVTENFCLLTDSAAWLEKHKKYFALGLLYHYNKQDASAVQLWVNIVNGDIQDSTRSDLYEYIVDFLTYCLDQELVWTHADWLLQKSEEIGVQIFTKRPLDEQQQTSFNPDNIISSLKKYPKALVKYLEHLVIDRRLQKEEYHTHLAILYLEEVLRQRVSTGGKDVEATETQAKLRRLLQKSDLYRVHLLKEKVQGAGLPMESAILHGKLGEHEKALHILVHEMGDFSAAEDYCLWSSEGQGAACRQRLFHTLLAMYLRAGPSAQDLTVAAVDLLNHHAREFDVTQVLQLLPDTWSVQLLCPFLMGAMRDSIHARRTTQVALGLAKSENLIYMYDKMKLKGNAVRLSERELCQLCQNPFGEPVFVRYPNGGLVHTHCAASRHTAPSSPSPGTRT
UniProt Q3UBG2: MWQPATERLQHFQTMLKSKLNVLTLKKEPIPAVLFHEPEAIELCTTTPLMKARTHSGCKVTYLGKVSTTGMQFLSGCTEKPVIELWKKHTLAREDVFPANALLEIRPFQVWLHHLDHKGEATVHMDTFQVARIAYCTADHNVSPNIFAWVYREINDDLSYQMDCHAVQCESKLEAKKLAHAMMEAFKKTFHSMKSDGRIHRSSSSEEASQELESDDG
UniProt Q4KL35: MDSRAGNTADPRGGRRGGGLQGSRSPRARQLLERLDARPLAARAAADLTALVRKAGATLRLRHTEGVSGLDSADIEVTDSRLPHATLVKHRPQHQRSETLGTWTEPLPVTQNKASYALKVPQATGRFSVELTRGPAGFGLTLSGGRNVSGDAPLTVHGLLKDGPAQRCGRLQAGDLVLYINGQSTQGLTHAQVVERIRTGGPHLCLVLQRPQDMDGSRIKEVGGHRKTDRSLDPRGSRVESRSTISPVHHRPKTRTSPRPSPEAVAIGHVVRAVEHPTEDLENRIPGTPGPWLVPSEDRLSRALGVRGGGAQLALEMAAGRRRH
UniProt Q4VAA2: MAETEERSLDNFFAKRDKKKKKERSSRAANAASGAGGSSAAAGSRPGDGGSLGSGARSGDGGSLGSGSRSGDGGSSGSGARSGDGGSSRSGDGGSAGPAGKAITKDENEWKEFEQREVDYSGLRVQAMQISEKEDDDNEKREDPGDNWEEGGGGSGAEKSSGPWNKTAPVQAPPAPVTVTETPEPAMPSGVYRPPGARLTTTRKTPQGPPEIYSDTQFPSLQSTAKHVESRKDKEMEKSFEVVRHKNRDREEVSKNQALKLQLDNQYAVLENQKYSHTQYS
UniProt Q52KB6: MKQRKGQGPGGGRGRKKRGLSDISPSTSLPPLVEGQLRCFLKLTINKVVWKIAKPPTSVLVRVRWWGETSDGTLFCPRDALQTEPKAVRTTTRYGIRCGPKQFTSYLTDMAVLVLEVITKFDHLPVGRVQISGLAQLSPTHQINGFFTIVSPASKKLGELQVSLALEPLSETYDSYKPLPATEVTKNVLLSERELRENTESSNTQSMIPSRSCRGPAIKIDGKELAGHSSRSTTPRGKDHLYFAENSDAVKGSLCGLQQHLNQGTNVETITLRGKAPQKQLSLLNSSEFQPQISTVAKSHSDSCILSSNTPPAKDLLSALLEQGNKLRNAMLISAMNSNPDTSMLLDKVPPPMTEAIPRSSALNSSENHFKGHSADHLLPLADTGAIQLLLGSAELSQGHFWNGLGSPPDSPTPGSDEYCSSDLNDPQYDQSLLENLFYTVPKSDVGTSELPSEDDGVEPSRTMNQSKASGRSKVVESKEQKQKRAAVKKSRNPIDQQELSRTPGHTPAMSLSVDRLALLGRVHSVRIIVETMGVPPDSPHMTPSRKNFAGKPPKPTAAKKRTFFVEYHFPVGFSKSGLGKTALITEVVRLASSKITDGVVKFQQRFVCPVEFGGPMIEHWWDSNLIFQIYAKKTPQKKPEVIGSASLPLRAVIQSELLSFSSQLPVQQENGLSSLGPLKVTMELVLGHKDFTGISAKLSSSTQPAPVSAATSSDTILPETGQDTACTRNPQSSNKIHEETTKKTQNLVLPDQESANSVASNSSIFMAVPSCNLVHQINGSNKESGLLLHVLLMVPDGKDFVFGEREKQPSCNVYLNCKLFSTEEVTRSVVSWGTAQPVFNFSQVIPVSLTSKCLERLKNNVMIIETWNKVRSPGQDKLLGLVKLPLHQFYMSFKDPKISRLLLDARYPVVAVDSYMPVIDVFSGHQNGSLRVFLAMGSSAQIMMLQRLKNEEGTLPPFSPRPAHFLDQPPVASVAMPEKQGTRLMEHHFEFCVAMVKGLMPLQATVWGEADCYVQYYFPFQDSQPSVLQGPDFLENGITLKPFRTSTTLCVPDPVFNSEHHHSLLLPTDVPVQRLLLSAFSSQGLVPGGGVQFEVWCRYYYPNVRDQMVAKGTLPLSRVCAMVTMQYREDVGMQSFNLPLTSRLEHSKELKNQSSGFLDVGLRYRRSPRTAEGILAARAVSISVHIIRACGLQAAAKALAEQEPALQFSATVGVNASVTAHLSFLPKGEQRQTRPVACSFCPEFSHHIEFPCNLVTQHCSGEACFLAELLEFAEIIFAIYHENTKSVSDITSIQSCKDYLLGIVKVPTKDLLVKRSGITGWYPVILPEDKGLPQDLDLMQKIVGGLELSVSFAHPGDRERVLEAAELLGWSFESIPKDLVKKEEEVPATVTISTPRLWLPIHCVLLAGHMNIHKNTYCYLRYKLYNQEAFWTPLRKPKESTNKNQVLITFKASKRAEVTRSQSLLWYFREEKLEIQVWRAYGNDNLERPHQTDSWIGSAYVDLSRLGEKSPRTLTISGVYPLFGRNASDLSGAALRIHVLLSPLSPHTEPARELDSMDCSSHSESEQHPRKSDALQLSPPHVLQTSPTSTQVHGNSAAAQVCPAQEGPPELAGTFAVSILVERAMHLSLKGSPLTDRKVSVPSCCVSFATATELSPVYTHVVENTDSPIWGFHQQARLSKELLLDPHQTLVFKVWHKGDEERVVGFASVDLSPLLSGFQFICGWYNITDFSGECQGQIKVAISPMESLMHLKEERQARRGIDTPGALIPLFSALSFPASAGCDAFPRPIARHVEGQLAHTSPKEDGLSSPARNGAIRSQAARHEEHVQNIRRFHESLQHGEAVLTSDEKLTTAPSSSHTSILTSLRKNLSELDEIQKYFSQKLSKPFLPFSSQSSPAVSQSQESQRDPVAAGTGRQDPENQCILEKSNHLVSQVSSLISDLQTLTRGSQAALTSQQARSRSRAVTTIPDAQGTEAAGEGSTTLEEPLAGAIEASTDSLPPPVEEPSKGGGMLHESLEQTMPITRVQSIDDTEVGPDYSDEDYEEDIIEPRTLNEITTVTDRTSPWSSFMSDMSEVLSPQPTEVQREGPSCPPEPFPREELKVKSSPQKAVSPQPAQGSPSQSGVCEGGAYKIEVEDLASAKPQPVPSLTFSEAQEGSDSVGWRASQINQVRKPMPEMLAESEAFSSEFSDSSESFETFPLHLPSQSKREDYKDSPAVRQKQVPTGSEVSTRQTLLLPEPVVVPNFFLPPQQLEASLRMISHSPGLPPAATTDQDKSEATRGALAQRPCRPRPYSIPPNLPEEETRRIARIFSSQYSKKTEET
UniProt Q4KML4: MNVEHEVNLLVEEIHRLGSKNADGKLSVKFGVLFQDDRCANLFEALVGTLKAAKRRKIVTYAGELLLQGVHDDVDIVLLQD
UniProt Q3UP75: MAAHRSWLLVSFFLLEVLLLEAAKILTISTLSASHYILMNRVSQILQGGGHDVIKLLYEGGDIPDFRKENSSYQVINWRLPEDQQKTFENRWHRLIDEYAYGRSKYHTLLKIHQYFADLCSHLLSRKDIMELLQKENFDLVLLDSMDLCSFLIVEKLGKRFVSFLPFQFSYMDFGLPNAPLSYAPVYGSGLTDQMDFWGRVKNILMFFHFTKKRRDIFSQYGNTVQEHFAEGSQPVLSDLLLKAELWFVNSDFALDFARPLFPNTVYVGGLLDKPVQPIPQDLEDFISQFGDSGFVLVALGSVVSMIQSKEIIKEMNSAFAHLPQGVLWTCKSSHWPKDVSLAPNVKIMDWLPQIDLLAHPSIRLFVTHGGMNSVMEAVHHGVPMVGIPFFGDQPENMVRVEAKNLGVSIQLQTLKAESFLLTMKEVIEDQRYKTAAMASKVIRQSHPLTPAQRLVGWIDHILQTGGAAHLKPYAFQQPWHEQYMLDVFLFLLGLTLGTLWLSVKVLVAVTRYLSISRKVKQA
UniProt Q497V5: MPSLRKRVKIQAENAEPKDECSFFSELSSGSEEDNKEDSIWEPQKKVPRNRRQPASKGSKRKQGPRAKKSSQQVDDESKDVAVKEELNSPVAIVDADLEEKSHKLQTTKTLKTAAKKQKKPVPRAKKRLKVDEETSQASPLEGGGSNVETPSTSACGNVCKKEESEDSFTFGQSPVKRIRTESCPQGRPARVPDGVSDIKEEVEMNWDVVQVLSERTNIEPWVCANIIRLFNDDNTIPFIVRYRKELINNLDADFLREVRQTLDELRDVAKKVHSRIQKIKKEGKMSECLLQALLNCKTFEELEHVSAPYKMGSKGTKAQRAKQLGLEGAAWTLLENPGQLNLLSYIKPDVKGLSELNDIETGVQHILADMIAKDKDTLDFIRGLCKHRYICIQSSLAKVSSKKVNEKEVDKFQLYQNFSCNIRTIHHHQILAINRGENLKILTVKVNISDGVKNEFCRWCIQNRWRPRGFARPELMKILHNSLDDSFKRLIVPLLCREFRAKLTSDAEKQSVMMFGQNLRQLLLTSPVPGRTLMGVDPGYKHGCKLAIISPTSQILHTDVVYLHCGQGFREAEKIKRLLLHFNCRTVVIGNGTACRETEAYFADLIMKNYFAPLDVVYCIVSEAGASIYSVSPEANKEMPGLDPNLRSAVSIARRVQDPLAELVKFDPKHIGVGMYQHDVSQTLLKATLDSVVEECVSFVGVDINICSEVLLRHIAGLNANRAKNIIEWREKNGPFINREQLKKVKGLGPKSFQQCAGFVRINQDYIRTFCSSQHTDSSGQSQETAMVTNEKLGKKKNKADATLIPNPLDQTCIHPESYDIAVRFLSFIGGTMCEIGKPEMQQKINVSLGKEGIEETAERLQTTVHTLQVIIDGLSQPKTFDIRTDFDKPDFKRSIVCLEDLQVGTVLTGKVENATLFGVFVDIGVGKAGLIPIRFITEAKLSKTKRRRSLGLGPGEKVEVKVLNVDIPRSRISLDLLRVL

Compound in this experiment: CN[C@@H]1C[C@H]2O[C@@](C)([C@@H]1OC)n1c3ccccc3c3c4c(c5c6ccccc6n2c5c31)C(=O)NC4 [staurosporine]
In words: log2 fold change of tryptic peptide abundance, ligand vs vehicle (limited proteolysis) (log2 ratio); higher = more trypsin-susceptible (destabilized). To be noted: ligand concentration: 20 uM; sample: mouse liver crude lysate; replicate design: treated separately.
As to “UniProt Q566J8 (peptide sequence: GLSEDDIR, peptide start residue: 54)”, the log2 fold change is -0.234.

Take “UniProt Q3URV1 (peptide sequence: LILDQLDPGQPK, peptide start residue: 173)”: the log2 fold change was -0.3.

As for “UniProt Q4FK66 (peptide sequence: RYVLEEAEQLEPR, peptide start residue: 168)”, the log2 fold change came out at 0.25.

For “UniProt Q571K4 (peptide sequence: TLVHSSSDGHIDPQHTAGK, peptide start residue: 97)”, the log2 fold change was determined as 0.556.

For the target “UniProt Q3UW53 (peptide sequence: NDFAVESYESK, peptide start residue: 95)”, the log2 fold change is -0.27.

On to “UniProt Q3U487 (peptide sequence: YDQWWECK, peptide start residue: 524)”, for which the log2 fold change stood at 0.361.

In the case of “UniProt Q3UTH8 (peptide sequence: KLEEKIR, peptide start residue: 409)”, the log2 fold change is -0.118.

Turning to “UniProt Q3UPH7 (peptide sequence: VQQMVSMGIGNKPFLDIK, peptide start residue: 1381)”, the log2 fold change was -0.32.

For the target “UniProt Q3UNZ8 (peptide sequence: INDAFLHVMQR, peptide start residue: 329)”, the log2 fold change was 0.132.

As to “UniProt Q3UM18 (peptide sequence: ADLLTAEQR, peptide start residue: 214)”, the log2 fold change is -0.492.

Regarding “UniProt Q5DTW7 (peptide sequence: SLCSGVGNSQK, peptide start residue: 506)”, the log2 fold change was -0.442.

Take “UniProt Q3URQ0 (peptide sequence: LLLQHVPLR, peptide start residue: 865)”: the log2 fold change was 0.593.

Take “UniProt Q3UHQ6 (peptide sequence: HQEALIGQSFYGK, peptide start residue: 1283)”: the log2 fold change was found to be 0.719.

In the case of “UniProt Q3UE17 (peptide sequence: RPPAATGGLR, peptide start residue: 362)”, the log2 fold change is -0.019.

On to “UniProt Q3UZ39 (peptide sequence: DSLAEVEEKYK, peptide start residue: 106)”, for which the log2 fold change amounted to 0.595.

In the case of “UniProt Q3UFF7 (peptide sequence: IIYPTAPSRPYTPLK, peptide start residue: 57)”, the log2 fold change was -0.474.

With “UniProt Q3UR70 (peptide sequence: EKFQVMYR, peptide start residue: 343)”, the log2 fold change is -0.287.

For “UniProt Q3UDW8 (peptide sequence: ADPLSADYQPETRR, peptide start residue: 242)”, the log2 fold change came out at 0.11.

As to “UniProt Q3UW55 (peptide sequence: KKQMSSWI, peptide start residue: 129)”, the log2 fold change stood at 0.152.

Regarding “UniProt Q3UBG2 (peptide sequence: LAHAMMEAFKK, peptide start residue: 178)”, the log2 fold change is 0.784.

In the case of “UniProt Q3UN02 (peptide sequence: SVIIMNHR, peptide start residue: 79)”, the log2 fold change is 0.273.

Take “UniProt Q3ULW8 (peptide sequence: MNHFTCLEDAK, peptide start residue: 109)”: the log2 fold change was -0.482.

On to “UniProt Q3UIR3 (peptide sequence: TCILFVPK, peptide start residue: 420)”, for which the log2 fold change is -0.457.

Take “UniProt Q4KL35 (peptide sequence: LDARPLAAR, peptide start residue: 35)”: the log2 fold change is 0.155.

Consider “UniProt Q3UHC0 (peptide sequence: QPPPPPPPPHLSLHPSAGK, peptide start residue: 1214)”, for which the log2 fold change turned out to be 0.671.

With “UniProt Q3UIJ9 (peptide sequence: STSTVTLFSGGGAK, peptide start residue: 4)”, the log2 fold change was -0.212.

Take “UniProt Q4VAA2 (peptide sequence: VQAMQISEK, peptide start residue: 125)”: the log2 fold change was found to be 0.119.

In the case of “UniProt Q3U7R1 (peptide sequence: GTKPPSPYATITVGETSHK, peptide start residue: 802)”, the log2 fold change amounted to 0.385.

As to “UniProt Q52KB6 (peptide sequence: TLNEITTVTDR, peptide start residue: 2052)”, the log2 fold change was determined as 0.444.

Consider “UniProt Q3U9G9 (peptide sequence: YGLAWEK, peptide start residue: 606)”, for which the log2 fold change came to 0.292.

In the case of “UniProt Q4KML4 (peptide sequence: FGVLFQDDR, peptide start residue: 30)”, the log2 fold change is -0.127.

As to “UniProt Q4VAA7 (peptide sequence: FTVISVPHLPEK, peptide start residue: 281)”, the log2 fold change is 0.252.

Regarding “UniProt Q3UVU3 (peptide sequence: EQGQTLSK, peptide start residue: 450)”, the log2 fold change is 0.15.

With “UniProt Q3UJU9 (peptide sequence: SYALNGKEEAEAALKK, peptide start residue: 300)”, the log2 fold change is -0.319.

For “UniProt Q3UP75 (peptide sequence: DVSLAPNVK, peptide start residue: 339)”, the log2 fold change was -0.136.

In the case of “UniProt Q497V5 (peptide sequence: VNISDGVKNEFCR, peptide start residue: 447)”, the log2 fold change was found to be 0.19.

Take “UniProt Q52KI8 (peptide sequence: KVELSESEEDKGSK, peptide start residue: 457)”: the log2 fold change is 0.213.
